Results are given in words; binding and its absence hold for the method and conditions named. Binding seen in cells or lysates may run through a third protein. Some binding calls cover weakened binding; strength is not graded here. Sequences can lack the tags named with a protein.
Tests used:
ERα 66 kDa [1] = target: ERα 66 kDa (UniProt P03372); assay: co-immunoprecipitation from co-transfected COS-7 lysate
ERα 66 kDa [2] = target: ERα 66 kDa (UniProt P03372); assay: co-immunoprecipitation from co-transfected COS-7 lysate (IP anti-MS-KIF18A or anti-His, Western blot anti-ERα)

Amino acid sequences for entries named in this document (tags omitted).
UniProt P03372: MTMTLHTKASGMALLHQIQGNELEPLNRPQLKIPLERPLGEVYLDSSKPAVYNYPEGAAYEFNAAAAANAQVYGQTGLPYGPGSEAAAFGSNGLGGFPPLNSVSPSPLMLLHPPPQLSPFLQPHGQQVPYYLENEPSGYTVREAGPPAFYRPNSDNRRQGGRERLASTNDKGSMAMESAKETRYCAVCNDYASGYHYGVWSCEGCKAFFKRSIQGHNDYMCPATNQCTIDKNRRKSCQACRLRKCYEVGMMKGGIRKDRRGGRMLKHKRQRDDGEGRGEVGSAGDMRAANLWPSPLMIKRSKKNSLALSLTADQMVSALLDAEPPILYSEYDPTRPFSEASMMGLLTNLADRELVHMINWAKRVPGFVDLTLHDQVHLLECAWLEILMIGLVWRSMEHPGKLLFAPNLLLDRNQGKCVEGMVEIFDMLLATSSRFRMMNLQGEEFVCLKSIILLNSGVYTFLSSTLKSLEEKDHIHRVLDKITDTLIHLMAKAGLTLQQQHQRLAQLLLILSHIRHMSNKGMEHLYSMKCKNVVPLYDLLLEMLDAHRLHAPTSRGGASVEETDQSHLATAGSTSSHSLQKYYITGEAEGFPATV

B1: His-MS-KIF18A (protein, not shown: small tags and cut ends)
chain: MSVTEEDLCHHMKVVVRVRPENTKEKAAGFHKVVHVVDKHILVFDPKQEEVSFFHGKKTTNQNVIKKQNKDLKFVFDAVFDETSTQSEVFEHTTKPILRSFLNGYNCTVLAYGATGAGKTHTMLGSADEPGVMYLTMLHLYKCMDEIKEEKICSTAVSYLEVYNEQIRDLLVNSGPLAVREDTQKGVVVHGLTLHQPKSSEEILHLLDNGNKNRTQHPTDMNATSSRSHAVFQIYLRQQDKTASINQNVRIAKMSLIDLAGSERASTSGAKGTRFVEGTNINRSLLALGNVINALADSKRKNQHIPYRNSKLTRLLKDSLGGNCQTIMIAAVSPSSVFYDDTYNTLKYANRAKDIKSSLKSNVLNVNNHITQYVKICNEQKAEILLLKEKLKAYEEQKAFTNENDQAKLMISNPQEKEIERFQEILNCLFQNREEIRQEYLKLEMLLKENELKSFYQQQCHKQIEMMCSEDKVEKATGKRDHRLAMLKTRRSYLEKRREEELKQFDENTNWLHRVEKEMGLLSQNGHIPKELKKDLHCHHLHLQNKDLKAQIRHMMDLACLQEQQHRQTEAVLNALLPTLRKQYCTLKEAGLSNAAFESDFKEIEHLVERKKVVVWADQTAEQPKQNDLPGISVLMTFPQLGPVQPIPCCSSSGGTNLVKIPTEKRTRRKLMPSPLKGQHTLKSPPSQSVQLNDSLSKELQPIVYTPEDCRKAFQNPSTVTLMKPSSFTTSFQAVSSNINSDNCLKMLCEVAIPHNRRKECGQEDLDSTFTICEDIKSSKCKLPEQESLPNDNKDILQRLDPSSFSTKHSMPVPSMVPSYMAMTTAAKRKRKLTSSTSNSSLTADVNSGFAKRVRQDNSSEKHLQENKPTMEHKRNICKINPSMVRKFGRNISKGNLR
Which binding (ERα 66 kDa [1]) does the source give for B1 here?
Its binding is “binds”.

And the binding (ERα 66 kDa [2])?
The binding was “binds”.
